Measured values reported in publication PMC6386878.
These are yes or no findings as the source states them, for the method shown. Binding seen in cells or lysates may run through a third protein. Some entries that bind do so weakly or less than the wild type.

By UniProt entry, the sequences of proteins in these tests, tags left out. Where a name states a change or a piece, a line headed by the entry shows the natural chain unless it says otherwise. Residues count along the entry.
UniProt O60260: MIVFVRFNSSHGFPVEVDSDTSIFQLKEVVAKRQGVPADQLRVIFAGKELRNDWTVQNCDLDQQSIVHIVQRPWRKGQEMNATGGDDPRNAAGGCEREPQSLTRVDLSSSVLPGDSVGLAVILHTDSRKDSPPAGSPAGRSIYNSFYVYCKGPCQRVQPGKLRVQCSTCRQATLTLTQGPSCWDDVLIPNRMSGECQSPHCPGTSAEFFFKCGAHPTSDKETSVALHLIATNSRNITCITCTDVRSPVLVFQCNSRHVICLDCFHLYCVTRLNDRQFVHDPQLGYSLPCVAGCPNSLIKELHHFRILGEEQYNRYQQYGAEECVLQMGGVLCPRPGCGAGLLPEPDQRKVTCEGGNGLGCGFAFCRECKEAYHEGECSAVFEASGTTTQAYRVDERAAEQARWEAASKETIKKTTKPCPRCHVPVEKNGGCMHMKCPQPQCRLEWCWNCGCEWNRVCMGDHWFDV
HA-parkin N-terminal domain (aa 1 to 224): residues 1-224 of O60260
UniProt O95831, residues 102-613: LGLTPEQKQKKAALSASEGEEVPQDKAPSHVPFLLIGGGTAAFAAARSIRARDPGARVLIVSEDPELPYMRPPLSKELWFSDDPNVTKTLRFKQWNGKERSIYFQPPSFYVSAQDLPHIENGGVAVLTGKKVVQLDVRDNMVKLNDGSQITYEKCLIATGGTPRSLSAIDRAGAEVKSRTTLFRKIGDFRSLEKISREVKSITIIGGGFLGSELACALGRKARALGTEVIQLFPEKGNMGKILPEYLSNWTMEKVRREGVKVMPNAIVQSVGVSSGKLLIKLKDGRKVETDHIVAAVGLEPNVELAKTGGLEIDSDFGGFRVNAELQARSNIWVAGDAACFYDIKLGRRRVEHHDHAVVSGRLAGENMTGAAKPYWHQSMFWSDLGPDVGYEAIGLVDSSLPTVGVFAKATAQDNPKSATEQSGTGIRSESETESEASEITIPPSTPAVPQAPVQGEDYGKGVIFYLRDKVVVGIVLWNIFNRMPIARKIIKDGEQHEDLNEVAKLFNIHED

Key:
[1] = target: HA-parkin, wild type (full-length) (UniProt O60260); test: co-IP; whole-cell lysates of HeLa cells transfected with HA-parkin (WT, N, C); IP with anti-HA antibody, Western blot for endogenous AIF; densitometry of AIF relative to immunoprecipitated parkin
[2] = target: HA-parkin N-terminal domain (aa 1 to 224) (UniProt O60260); test: as above
[3] = target: apoptosis-inducing factor (AIF), endogenous (human (endogenous in SH-SY5Y and HeLa)) (UniProt O95831); test: co-IP; whole-cell lysates of untreated SH-SY5Y cells with endogenous parkin levels; IP with rabbit anti-AIF antibody overnight at 4 °C, agarose beads, Western blot with anti-parkin; rabbit IgG and parkin knockdown cells as controls
[4] = target: apoptosis-inducing factor (AIF), endogenous (human (endogenous in SH-SY5Y and HeLa)) (UniProt O95831); test: proximity ligation; in situ PLA (Duolink) in fixed SH-SY5Y cells, endogenous proteins, mouse anti-parkin and rabbit anti-AIF; untreated, CCCP (10 µM, 3 h) or STS (2 µM, 3 h)
[5] = target: apoptosis-inducing factor (AIF), endogenous (human (endogenous in SH-SY5Y and HeLa)) (UniProt O95831); test: co-IP; mitochondrial fractions of SH-SY5Y cells with moderately overexpressed parkin; untreated, CCCP or STS treated

Substance: apoptosis-inducing factor (AIF), endogenous (from UniProt O95831 102-613)
- binding [1]: binds
- binding [2]: binds

Substance: parkin (endogenous, SH-SY5Y cells) (from UniProt O60260 1-465)
- binding [3]: binds
- binding [4]: binds

Substance: parkin, stably (moderately) overexpressed in SH-SY5Y cells (from UniProt O60260 1-465)
- binding [5]: binds
